Assay results: the supplement of paper PMC10849652
Some of the results follow.

Protein sequences, listed by entry. Tags and fused reporters are not part of them. Lines headed by an entry give the natural chain unless they say otherwise; changes in a name come on top.
UniProt P48147: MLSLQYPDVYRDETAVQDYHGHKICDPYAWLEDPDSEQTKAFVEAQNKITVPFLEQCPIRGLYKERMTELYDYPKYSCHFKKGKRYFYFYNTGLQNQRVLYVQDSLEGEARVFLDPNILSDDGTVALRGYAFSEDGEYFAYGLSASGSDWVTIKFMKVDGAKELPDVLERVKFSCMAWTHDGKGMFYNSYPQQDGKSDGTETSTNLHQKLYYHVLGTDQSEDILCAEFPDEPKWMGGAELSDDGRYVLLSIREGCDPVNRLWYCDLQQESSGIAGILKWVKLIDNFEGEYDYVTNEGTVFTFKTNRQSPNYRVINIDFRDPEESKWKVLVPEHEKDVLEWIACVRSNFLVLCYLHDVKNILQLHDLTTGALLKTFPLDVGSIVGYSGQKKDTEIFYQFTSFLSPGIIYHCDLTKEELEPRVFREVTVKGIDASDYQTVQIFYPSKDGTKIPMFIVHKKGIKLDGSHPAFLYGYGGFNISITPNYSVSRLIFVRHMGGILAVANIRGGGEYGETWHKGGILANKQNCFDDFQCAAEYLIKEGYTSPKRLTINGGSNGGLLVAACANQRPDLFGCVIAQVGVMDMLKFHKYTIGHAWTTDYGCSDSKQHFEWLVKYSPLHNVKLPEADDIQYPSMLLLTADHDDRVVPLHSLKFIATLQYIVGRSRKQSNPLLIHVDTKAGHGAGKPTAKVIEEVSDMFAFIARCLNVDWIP
UniProt Q14558: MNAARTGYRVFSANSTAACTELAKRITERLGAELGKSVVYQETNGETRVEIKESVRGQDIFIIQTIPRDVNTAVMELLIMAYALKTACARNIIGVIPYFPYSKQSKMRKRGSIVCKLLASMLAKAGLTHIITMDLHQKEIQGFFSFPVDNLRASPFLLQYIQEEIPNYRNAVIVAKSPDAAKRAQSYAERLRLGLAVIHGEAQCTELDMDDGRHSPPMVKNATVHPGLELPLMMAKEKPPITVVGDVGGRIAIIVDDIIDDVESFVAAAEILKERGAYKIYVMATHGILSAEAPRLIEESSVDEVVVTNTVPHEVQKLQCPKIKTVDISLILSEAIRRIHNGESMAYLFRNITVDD
UniProt P67775, whole entry, looked up: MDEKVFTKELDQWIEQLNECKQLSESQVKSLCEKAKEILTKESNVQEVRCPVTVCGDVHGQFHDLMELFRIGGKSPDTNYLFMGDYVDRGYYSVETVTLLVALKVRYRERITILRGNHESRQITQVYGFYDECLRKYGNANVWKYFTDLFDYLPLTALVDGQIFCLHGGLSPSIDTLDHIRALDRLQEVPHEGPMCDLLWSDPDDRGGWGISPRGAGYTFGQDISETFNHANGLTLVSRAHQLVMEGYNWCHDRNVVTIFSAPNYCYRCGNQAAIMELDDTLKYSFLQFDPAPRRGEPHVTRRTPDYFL
UniProt Q99873, whole entry, looked up: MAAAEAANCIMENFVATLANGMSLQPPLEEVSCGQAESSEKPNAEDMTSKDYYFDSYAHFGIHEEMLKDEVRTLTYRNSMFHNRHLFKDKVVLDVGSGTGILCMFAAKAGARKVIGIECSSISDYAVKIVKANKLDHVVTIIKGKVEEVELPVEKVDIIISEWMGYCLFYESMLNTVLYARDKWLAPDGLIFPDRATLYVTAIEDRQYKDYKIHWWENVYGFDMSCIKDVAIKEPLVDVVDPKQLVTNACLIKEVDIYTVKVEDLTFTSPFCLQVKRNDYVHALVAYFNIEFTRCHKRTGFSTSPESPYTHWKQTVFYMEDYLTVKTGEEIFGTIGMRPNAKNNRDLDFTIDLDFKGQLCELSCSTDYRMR
UniProt Q9UGJ0: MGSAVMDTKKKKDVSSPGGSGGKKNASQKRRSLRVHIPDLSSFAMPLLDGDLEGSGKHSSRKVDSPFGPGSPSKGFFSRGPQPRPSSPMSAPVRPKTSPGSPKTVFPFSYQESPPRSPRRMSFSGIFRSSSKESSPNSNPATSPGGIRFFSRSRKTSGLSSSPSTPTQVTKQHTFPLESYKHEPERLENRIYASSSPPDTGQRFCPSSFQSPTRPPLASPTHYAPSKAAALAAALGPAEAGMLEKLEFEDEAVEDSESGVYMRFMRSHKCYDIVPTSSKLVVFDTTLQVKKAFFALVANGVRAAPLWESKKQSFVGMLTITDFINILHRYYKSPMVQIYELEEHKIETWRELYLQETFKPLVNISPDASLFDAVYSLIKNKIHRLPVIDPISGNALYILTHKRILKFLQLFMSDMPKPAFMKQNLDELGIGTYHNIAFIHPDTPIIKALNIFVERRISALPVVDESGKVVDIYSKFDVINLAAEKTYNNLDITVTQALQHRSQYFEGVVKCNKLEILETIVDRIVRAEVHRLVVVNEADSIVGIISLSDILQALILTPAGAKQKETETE
UniProt Q15435: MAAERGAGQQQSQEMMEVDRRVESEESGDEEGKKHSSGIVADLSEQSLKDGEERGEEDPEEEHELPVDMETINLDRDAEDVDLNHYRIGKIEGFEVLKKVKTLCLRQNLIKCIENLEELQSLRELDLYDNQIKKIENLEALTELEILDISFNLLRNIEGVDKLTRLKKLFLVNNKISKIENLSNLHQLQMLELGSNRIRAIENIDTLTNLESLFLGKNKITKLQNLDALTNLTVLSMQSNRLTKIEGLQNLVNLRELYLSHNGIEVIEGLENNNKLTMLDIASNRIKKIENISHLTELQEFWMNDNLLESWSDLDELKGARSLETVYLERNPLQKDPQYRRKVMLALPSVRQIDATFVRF
UniProt P30044: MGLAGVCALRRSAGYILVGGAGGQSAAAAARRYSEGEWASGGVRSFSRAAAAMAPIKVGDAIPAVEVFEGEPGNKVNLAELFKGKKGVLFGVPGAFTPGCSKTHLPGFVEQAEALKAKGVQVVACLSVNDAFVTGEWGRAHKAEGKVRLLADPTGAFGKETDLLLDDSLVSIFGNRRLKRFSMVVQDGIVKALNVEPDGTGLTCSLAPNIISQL
UniProt Q06830: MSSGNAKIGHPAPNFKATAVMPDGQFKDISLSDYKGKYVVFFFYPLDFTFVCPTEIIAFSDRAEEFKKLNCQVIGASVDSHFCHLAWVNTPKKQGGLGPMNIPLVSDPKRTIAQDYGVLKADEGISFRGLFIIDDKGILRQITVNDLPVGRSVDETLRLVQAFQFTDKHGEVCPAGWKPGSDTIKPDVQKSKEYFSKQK
UniProt Q8WY54: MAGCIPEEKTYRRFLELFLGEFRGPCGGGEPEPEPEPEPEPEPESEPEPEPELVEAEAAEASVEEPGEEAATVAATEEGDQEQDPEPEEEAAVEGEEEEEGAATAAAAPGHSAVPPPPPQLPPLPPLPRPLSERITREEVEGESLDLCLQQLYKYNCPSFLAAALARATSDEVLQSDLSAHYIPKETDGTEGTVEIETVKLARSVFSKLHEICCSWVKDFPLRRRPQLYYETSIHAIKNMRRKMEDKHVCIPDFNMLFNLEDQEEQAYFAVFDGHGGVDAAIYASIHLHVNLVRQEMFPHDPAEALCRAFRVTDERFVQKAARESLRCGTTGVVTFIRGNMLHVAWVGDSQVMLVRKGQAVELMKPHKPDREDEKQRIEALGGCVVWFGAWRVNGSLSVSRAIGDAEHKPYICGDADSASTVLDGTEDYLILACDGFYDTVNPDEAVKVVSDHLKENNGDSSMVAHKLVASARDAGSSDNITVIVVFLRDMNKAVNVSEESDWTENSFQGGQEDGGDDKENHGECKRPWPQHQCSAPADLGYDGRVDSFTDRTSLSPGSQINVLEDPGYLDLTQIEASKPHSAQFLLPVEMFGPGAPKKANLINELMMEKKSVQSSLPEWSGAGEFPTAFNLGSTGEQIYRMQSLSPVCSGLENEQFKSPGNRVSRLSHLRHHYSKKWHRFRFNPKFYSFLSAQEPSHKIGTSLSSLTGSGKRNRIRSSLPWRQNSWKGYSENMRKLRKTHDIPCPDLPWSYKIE
UniProt Q9NY27: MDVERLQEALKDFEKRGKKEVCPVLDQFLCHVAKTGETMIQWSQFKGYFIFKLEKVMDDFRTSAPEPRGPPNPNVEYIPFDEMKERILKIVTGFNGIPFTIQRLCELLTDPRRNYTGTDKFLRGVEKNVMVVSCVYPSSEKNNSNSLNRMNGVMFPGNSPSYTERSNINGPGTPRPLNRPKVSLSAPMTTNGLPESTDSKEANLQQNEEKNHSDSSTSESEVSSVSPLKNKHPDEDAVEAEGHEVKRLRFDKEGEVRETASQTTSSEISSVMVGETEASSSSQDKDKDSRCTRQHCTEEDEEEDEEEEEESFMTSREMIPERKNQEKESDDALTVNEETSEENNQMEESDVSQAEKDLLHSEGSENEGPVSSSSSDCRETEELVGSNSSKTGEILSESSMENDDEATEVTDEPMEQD
UniProt Q6IN85: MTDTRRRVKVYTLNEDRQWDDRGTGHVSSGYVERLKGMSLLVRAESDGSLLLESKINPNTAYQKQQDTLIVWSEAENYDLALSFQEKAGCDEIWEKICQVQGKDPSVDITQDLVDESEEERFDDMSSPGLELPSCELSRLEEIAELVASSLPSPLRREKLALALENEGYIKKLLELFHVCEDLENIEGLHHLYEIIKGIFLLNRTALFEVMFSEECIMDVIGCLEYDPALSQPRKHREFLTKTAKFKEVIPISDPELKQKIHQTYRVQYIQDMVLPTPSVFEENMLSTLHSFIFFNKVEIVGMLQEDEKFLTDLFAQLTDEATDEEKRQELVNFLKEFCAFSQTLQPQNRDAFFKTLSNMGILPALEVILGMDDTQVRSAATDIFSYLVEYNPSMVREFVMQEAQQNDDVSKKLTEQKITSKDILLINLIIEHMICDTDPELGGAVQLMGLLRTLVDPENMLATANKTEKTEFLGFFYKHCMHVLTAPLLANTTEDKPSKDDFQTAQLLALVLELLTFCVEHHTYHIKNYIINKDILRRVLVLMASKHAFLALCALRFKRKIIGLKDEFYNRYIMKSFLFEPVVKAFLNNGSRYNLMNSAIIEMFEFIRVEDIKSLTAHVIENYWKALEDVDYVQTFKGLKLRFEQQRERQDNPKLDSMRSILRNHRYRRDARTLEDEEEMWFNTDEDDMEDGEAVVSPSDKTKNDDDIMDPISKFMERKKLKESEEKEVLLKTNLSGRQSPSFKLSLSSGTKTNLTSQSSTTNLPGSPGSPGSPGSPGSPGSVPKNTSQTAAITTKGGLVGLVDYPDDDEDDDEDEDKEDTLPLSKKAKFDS
UniProt P48454, whole entry, looked up: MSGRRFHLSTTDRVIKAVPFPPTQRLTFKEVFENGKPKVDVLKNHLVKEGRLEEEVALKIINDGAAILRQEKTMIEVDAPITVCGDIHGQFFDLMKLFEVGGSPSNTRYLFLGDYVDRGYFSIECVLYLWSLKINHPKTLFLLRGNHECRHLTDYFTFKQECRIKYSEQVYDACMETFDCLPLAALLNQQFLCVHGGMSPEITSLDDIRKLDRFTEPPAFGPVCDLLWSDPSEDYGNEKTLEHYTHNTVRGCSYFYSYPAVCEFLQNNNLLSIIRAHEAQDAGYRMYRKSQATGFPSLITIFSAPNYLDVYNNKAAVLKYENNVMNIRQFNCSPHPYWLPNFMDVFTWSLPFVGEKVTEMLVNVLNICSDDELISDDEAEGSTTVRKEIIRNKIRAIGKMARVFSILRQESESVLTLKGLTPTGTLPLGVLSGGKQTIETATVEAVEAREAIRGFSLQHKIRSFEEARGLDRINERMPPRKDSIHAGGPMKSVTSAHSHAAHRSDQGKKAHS
UniProt P30153, whole entry, looked up: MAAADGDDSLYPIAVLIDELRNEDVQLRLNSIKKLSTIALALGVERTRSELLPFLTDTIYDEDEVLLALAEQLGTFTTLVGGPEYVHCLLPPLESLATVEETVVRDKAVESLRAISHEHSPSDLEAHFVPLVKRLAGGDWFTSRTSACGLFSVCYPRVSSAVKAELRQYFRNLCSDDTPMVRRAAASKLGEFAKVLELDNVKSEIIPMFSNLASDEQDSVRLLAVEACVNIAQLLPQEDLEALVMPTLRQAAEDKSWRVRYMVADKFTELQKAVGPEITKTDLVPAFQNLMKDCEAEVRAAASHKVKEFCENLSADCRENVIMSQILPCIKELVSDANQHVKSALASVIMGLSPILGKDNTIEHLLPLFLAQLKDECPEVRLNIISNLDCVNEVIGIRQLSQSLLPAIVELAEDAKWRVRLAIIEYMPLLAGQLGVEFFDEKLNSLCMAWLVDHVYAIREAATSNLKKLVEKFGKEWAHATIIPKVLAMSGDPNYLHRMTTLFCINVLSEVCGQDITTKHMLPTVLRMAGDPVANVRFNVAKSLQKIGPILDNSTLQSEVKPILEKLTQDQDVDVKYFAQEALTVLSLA

Key:
Assay in all cases: log2 fold change, soluble protein after heating vs DMSO (PISA); higher = thermal stabilisation; K562 cells, 10 uM, 30 min; active = over 0.2 and 3.5 SD of the protein, either way, in both replicates (recomputed)
[1] = compound: CC[C@@H]1C(=O)N(C)c2cnc(Nc3ccc(C(=O)NC4CCN(C)CC4)cc3OC)nc2N1C1CCCC1
In short: (§1)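 Thermal stability values are relative to control samples and come from duplicates. They are expressed as log2 fold changes. For measurement, K562 cells (2×10^6 cells/mL) received 10 μM compound for 30 min, and aliquots were heated for 3 min over 48°C-58°C, pooled, and extracted at 4°C in PBS with 0.5% NP-40. Soluble protein, the supernatant after 21,000xg for 90 min, was quantified by TMTpro 16plex LC-MS/MS with equalised channel sums.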

volasertib = compound: CC[C@@H]1C(=O)N(C)c2cnc(Nc3ccc(C(=O)N[C@H]4CC[C@H](N5CCN(CC6CC6)CC5)CC4)cc3OC)nc2N1C(C)C [volasertib]
In short: as §1

[2] = compound: CC[C@H](C)N1C=C(C2=C(C=C(C=C21)C3=CN=C(C=C3)N4CCNCC4)C(=O)NCC5=C(C=C(NC5=O)C)C)C
In short: as §1

epoxomicin = compound: CC[C@H](C)[C@@H](C(=O)N[C@@H]([C@@H](C)O)C(=O)N[C@@H](CC(C)C)C(=O)[C@]1(CO1)C)NC(=O)[C@H]([C@@H](C)CC)N(C)C(=O)C [epoxomicin]
In short: as §1

[3] = compound: CCn1c(C(=O)N(C2CC2)C2CC2)cc2c3c(ncn3C)c(Nc3cc(C)n(C)n3)nc21
In short: as §1

[4] = compound: CCn1cc(-c2ccnc3[nH]c(-c4cccc(CN(C)C)c4)cc23)c(-c2ccc(NC(=O)N(C)C)cc2)n1
In short: as §1

[5] = compound: CN(C)CC(=O)Nc1ccc2[nH]c(=O)c3ccccc3c2c1
In short: as §1

rosiglitazone = compound: CN(CCOC1=CC=C(C=C1)C[C@H]2C(=O)NC(=O)S2)C3=CC=CC=N3 (racemic) [rosiglitazone]
In short: as §1

[6] = compound: CN1C2=C(C3=C1C(=O)N(N=C3)CC4=CC(=CC=C4)N)SC(=C2)S(=O)C
In short: as §1

[7] = compound: CN1CCC(CNc2ccc3ncc(-c4cccc(OC(F)(F)F)c4)n3n2)CC1
In short: as §1

saracatinib = compound: CN1CCN(CCOc2cc(OC3CCOCC3)c3c(Nc4c(Cl)ccc5c4OCO5)ncnc3c2)CC1 [saracatinib]
In short: as §1

sotrastaurin = compound: CN1CCN(c2nc(C3=C(c4c[nH]c5ccccc45)C(=O)NC3=O)c3ccccc3n2)CC1 [sotrastaurin]
In short: as §1

alvocidib = compound: CN1CC[C@H](c2c(O)cc(O)c3c(=O)cc(-c4ccccc4Cl)oc23)[C@H](O)C1 [alvocidib]
In short: as §1

Tubastatin A = compound: CN1CCc2c(c3ccccc3n2Cc2ccc(C(=O)NO)cc2)C1 [Tubastatin A]
In short: as §1

[8] = compound: CNC(=O)C1=CC=CC=C1NC2=NC(=NC=C2Cl)NC3=C(C=C(C=C3)N4CCOCC4)OC
In short: as §1

defactinib = compound: CNC(=O)c1ccc(Nc2ncc(C(F)(F)F)c(NCc3nccnc3N(C)S(C)(=O)=O)n2)cc1 [defactinib]
In short: as §1

rucaparib = compound: CNCc1ccc(-c2[nH]c3cc(F)cc4c3c2CCNC4=O)cc1 [rucaparib]
In short: as §1

[9] = compound: CNc1nc(-c2ccc3c(N)n[nH]c3c2)cc(N2C[C@@H](C(=O)NC3CCCCC3)CC[C@H]2C)n1
In short: as §1

encorafenib = compound: COC(=O)N[C@@H](C)CNc1nccc(-c2cn(C(C)C)nc2-c2cc(Cl)cc(NS(C)(=O)=O)c2F)n1 [encorafenib]
In short: as §1

[10] = compound: COC(=O)[C@H](CCSC)NC(=O)C1=C(C=C(C=C1)NC[C@H](CS)N)C2=CC=CC=C2
In short: as §1

Measured: log2 fold change

PREP (UniProt P48147)
inactive: [1] 0.051 | volasertib -0.258 | [2] 0.095 | epoxomicin 0.078 | [3] -0.046 | [4] -0.013 | [5] 0.045 | rosiglitazone 0.052 | [6] 0.09 | [7] -0.006 | saracatinib -0.031 | sotrastaurin -0.063 | alvocidib -0.036 | Tubastatin A 0.077 | [8] 0.014 | defactinib -0.079 | rucaparib 0.154 | [9] 0.048 | encorafenib 0.161 | [10] -0.029

PRPSAP1 isoform 2 (UniProt Q14558)
inactive: [1] 0.046 | volasertib 0.087 | [2] -0.014 | epoxomicin -0.002 | [3] 0.009 | [4] 0.005 | [5] -0.054 | rosiglitazone -0.049 | [6] 0.019 | [7] -0.004 | saracatinib 0.039 | sotrastaurin 0.027 | alvocidib 0.008 | Tubastatin A -0.022 | [8] -0.011 | defactinib 0.044 | rucaparib 0.019 | [9] 0.006 | encorafenib 0.012 | [10] 0.041

PPP2CA (UniProt P67775)
inactive: [1] -0.009 | volasertib 0.011 | [2] -0.024 | epoxomicin 0.001 | [3] 0.01 | [4] 0.01 | [5] -0.013 | rosiglitazone 0.032 | [6] -0.014 | [7] 0.002 | saracatinib 0.014 | sotrastaurin 0.05 | alvocidib -0.012 | Tubastatin A 0.001 | [8] -0.001 | defactinib -0.033 | rucaparib -0.094 | [9] -0.028 | encorafenib 0.031 | [10] 0.021

PRMT1 (UniProt Q99873)
inactive: [1] -0.034 | volasertib -0.019 | [2] 0.017 | epoxomicin 0.016 | [3] -0.002 | [4] -0.079 | [5] -0.017 | rosiglitazone 0.019 | [6] -0.035 | [7] -0.005 | saracatinib 0.012 | sotrastaurin 0.019 | alvocidib -0.058 | Tubastatin A -0.028 | [8] 0 | defactinib 0.013 | rucaparib -0.023 | [9] 0.036 | encorafenib 0.004 | [10] -0.042

PRKAG2 (UniProt Q9UGJ0)
inactive: [1] -0.072 | volasertib -0.154 | [2] 0.049 | epoxomicin 0.028 | [3] 0.013 | [4] -0.053 | [5] 0.019 | rosiglitazone 0.033 | [6] -0.035 | [7] -0.129 | saracatinib 0.011 | sotrastaurin 0.002 | alvocidib -0.032 | Tubastatin A -0.033 | [8] -0.125 | defactinib -0.019 | rucaparib -0.045 | [9] -0.071 | encorafenib 0.053 | [10] 0.036

PPP1R7 (UniProt Q15435)
inactive: [1] 0.012 | volasertib 0.025 | [2] -0.067 | epoxomicin -0.021 | [3] 0.015 | [4] -0.112 | [5] -0.049 | rosiglitazone 0.058 | [6] -0.08 | [7] -0.037 | saracatinib 0.037 | sotrastaurin 0.048 | alvocidib 0.009 | Tubastatin A -0.052 | [8] -0.008 | defactinib 0.017 | rucaparib -0.029 | [9] 0.001 | encorafenib -0.054 | [10] 0.032

PRDX5 (UniProt P30044)
inactive: [1] 0.029 | volasertib 0.064 | [2] -0.025 | epoxomicin -0.02 | [3] 0.038 | [4] 0.047 | [5] -0.016 | rosiglitazone 0 | [6] -0.004 | [7] -0.058 | saracatinib 0.062 | sotrastaurin 0.029 | alvocidib 0.004 | Tubastatin A -0.003 | [8] -0.018 | defactinib -0.015 | rucaparib 0.005 | [9] -0.034 | encorafenib -0.017 | [10] 0.019

PRDX1 (UniProt Q06830)
inactive: [1] -0.011 | volasertib 0.099 | [2] -0.009 | epoxomicin 0.003 | [3] 0.021 | [4] -0.021 | [5] 0.014 | rosiglitazone 0.03 | [6] -0.046 | [7] -0.052 | saracatinib 0.003 | sotrastaurin 0.02 | alvocidib -0.032 | Tubastatin A -0.012 | [8] -0.015 | defactinib -0.013 | rucaparib 0.202 | [9] -0.016 | encorafenib -0.01 | [10] 0.022

Looked up one by one from the list above, 2 records:
PREP (UniProt P48147)
inactive: [1] 0.051 | volasertib -0.258 | [2] 0.095 | epoxomicin 0.078 | [3] -0.046 | [4] -0.013 | [5] 0.045 | rosiglitazone 0.052 | [6] 0.09 | [7] -0.006 | saracatinib -0.031 | sotrastaurin -0.063 | alvocidib -0.036 | Tubastatin A 0.077 | [8] 0.014 | defactinib -0.079 | rucaparib 0.154 | [9] 0.048 | encorafenib 0.161 | [10] -0.029

PRDX5 (UniProt P30044)
inactive: [1] 0.029 | volasertib 0.064 | [2] -0.025 | epoxomicin -0.02 | [3] 0.038 | [4] 0.047 | [5] -0.016 | rosiglitazone 0 | [6] -0.004 | [7] -0.058 | saracatinib 0.062 | sotrastaurin 0.029 | alvocidib 0.004 | Tubastatin A -0.003 | [8] -0.018 | defactinib -0.015 | rucaparib 0.005 | [9] -0.034 | encorafenib -0.017 | [10] 0.019

The list goes on:

PPP6R2 isoform 5 (UniProt O75170)
inactive: [1] 0.003 | volasertib -0.109 | [2] 0.012 | epoxomicin 0.03 | [3] 0.004 | [4] -0.022 | [5] 0.045 | rosiglitazone 0.043 | [6] -0.055 | [7] -0.129 | saracatinib 0.031 | sotrastaurin -0.043 | alvocidib -0.032 | Tubastatin A -0.05 | [8] -0.005 | defactinib -0.016 | rucaparib -0.044 | [9] -0.032 | encorafenib 0.051 | [10] -0.034

PRAME (UniProt P78395)
inactive: [1] 0.028 | volasertib -0.144 | [2] 0.137 | epoxomicin 0.128 | [3] 0.037 | [4] -0.011 | [5] 0.015 | rosiglitazone -0.014 | [6] 0.091 | [7] 0.103 | saracatinib -0.066 | sotrastaurin -0.025 | alvocidib -0.06 | Tubastatin A 0.156 | [8] -0.02 | defactinib -0.067 | rucaparib 0.047 | [9] -0.023 | encorafenib 0.099 | [10] -0.003

PPM1E (UniProt Q8WY54)
inactive: [1] -0.002 | volasertib -0.108 | [2] -0.05 | epoxomicin 0.163 | [3] 0.01 | [4] -0.08 | [5] -0.015 | rosiglitazone -0.02 | [6] -0.058 | [7] -0.04 | saracatinib -0.059 | sotrastaurin 0.037 | alvocidib -0.241 | Tubastatin A -0.009 | [8] 0.02 | defactinib 0.024 | rucaparib -0.014 | [9] -0.036 | encorafenib 0.002 | [10] 0.006

PPP4R2 (UniProt Q9NY27)
inactive: [1] -0.016 | volasertib -0.064 | [2] 0.009 | epoxomicin 0.035 | [3] -0.108 | [4] -0.047 | [5] 0.002 | rosiglitazone 0.004 | [6] -0.061 | [7] -0.033 | saracatinib 0.042 | sotrastaurin 0.021 | alvocidib -0.035 | Tubastatin A -0.001 | [8] 0.054 | defactinib -0.124 | rucaparib 0 | [9] -0.079 | encorafenib 0.008 | [10] 0.063

PPP4R3A (UniProt Q6IN85)
inactive: [1] 0.01 | volasertib -0.112 | [2] 0.015 | epoxomicin -0.006 | [3] -0.005 | [4] 0 | [5] -0.017 | rosiglitazone -0.001 | [6] -0.074 | [7] -0.008 | saracatinib 0.007 | sotrastaurin 0.045 | alvocidib -0.042 | Tubastatin A 0.006 | [8] 0.035 | defactinib -0.04 | rucaparib -0.006 | [9] -0.066 | encorafenib -0.004 | [10] 0.029

PPP3CC isoform 3 (UniProt P48454)
inactive: [1] 0.032 | volasertib -0.043 | [2] 0.003 | epoxomicin 0.039 | [3] 0.003 | [4] 0.033 | [5] -0.036 | rosiglitazone 0.021 | [6] -0.004 | [7] 0.053 | saracatinib 0.025 | sotrastaurin 0.029 | alvocidib -0.008 | Tubastatin A -0.011 | [8] 0.027 | defactinib -0.009 | rucaparib -0.024 | [9] -0.017 | encorafenib -0.012 | [10] 0.004

PPP2R1A (UniProt P30153)
inactive: [1] -0.049 | volasertib -0.025 | [2] 0.022 | epoxomicin 0.056 | [3] 0.01 | [4] -0.042 | [5] 0.009 | rosiglitazone 0.021 | [6] -0.089 | [7] -0.037 | saracatinib -0.01 | sotrastaurin -0.012 | alvocidib -0.065 | Tubastatin A -0.03 | [8] 0.046 | defactinib -0.025 | rucaparib -0.085 | [9] -0.018 | encorafenib 0.014 | [10] -0.007
